For at least one compound, name, drawing or mass did not settle the structure.
System: MCF7 sphere cells
Test: Cell proliferation assay (MTT), MCF7 sphere cells
Type: cell-based, human
Details: comparison sphere versus parental cells, in words
Procedure: FIG. 2. Susceptibility of MCF7 sphere cells to common anticancer drugs compared with MCF7 cells. Single MCF7 and MCF7 sphere cells were inoculated into 96 well plates at a concentration of 5000 cells per well. After overnight culture, cells were subject to selected clinical drug treatment at the indicated dose for three days. Cell proliferation was determined by MTT assay.
MCF7 and MCF7 sphere cell culture. Human breast cancer cell line MCF7 cells, MDA-MB-435 cells were obtained from ATCC (American Type Culture Collection). Cells were grown in Dulbecco's Modified Eagle's Medium (DMEM) (Invitrogen) supplemented with 10% fetal bovine serum (FBS) (Invitrogen), 100 units/ml penicillin and 100 ug/ml streptomycin (Invitrogen), in a 37° C. incubator containing 5% CO2. To isolate and culture MCF7 sphere cells, SP cells were sorted based on protocol shown below. Sphere cell culture was performed according to published protocol with modifications^28-30. Briefly, single cells were plated in ultralow attachment plates (Corning, N.Y.) at a density of 20,000 viable cells/mL in primary culture and 1000 cells/mL in passages. […] The cells obtained from dissociation were passed through a 40-μm sieve and analyzed microscopically for single cells and subjected to the experiments below. […]

CO[C@H]1C[C@@H]2CC[C@@H](C)[C@@](O)(O2)C(=O)C(=O)N2CCCC[C@H]2C(=O)O[C@H]([C@H](C)C[C@@H]2CC[C@@H](O)[C@H](OC)C2)CC(=O)[C@H](C)/C=C(\C)[C@@H](O)[C@@H](OC)C(=O)[C@H](C)C[C@H](C)/C=C/C=C/C=C/1C [Rapamycin]
growth inhibition on MCF7 sphere cells compared with MCF7 cells: higher growth inhibition effect on MCF7 sphere cells than MCF7 cells | growth inhibition on MCF7 sphere cells compared with MCF7 cells (listed as Raparnycin): inhibit MCF7 sphere cells more strongly than the parental MCF7 cells

From patent publication US20100150844A1, “USE OF 8-QUINOLINOL AND ITS ANALOGS TO TARGET CANCER STEM CELLS” (The Johns Hopkins University, priority 2006, published 2010)
